The other results are listed elsewhere or left out.
The compounds below were run on T1, CTL2-GFP (C. trachomatis L2/434/Bu, GFP-expressing). Conditions: bulk GFP, single well; 28.5 h, 10 µM; inhibitor.
T1 construct: L2/434/Bu, GFP-expressing
Set-up: species or system HeLa; Intracellular C. trachomatis growth in HeLa cells, bulk GFP fluorescence relative to DMSO
With `COc1cccc(CNC(=O)C2CCCN(c3nc4c(-c5ccccc5)csc4c(=O)[nH]3)C2)c1` (stereo not shown) [CBK215463] the “% of control remaining” value was 137.795%.
For `CC(Sc1nnc2[nH]c3ccccc3n12)C(=O)O` (stereo not shown) [CBK265822], the “% of control remaining” value was 191.416%.
For `CN(C)C(=O)CCc1nc(-c2ccccn2)no1` [CBK297735], the “% of control remaining” value was 148.33%.
In the case of `CC(=O)ON=C1c2cc(S(=O)(=O)N(C)C)ccc2-c2ccc(S(=O)(=O)N(C)C)cc21` [CBK262807], the “% of control remaining” value is reported as 126.135%.
In the case of `Cc1ccc(S(=O)(=O)Nc2nnc(SCC(=O)Nc3ccc4c(c3)OCO4)s2)cc1` [CBK026675], the “% of control remaining” value is reported as 101.592%.
`Cc1csc(N2CCN(CC(O)COCc3ccco3)CC2)n1` (stereo not shown) [CBK306151] was tested, and the “% of control remaining” value was 116.651%.
For `CN1CCN(S(=O)(=O)c2ccc3oc(=O)ccc3c2)CC1` [CBK062431], the “% of control remaining” value was 110.397%.
For `O=C(O)c1cc(C(=O)O)n(Cc2ccc(Cl)cc2Cl)n1` [CBK268283], the “% of control remaining” value was 87.4296%.
In the case of `N#CC(CCCN1CCN(c2ccccc2)CC1)(c1ccccc1)c1ccccc1` [CBK002243C], the “% of control remaining” value is reported as 53.3009%.
For `O=C(Nc1ccc(Br)cc1C(=O)O)c1cccs1` [CBK066822], the “% of control remaining” value was 144.99%.
`COc1cccc(-c2ccc(NS(=O)(=O)c3ccc4c(c3)CCC(=O)N4)cc2)c1` [CBK286373] was tested, and the “% of control remaining” value was 100.327%.
With `c1cncc(-c2nnc([C@H]3CCN(C4CCOCC4)C3)o2)c1` [CBK289398] the “% of control remaining” value was 123.878%.
`Cn1c(N)c(C(=O)NCC2CCCO2)c2nc3ccccc3nc21` (stereo not shown) [CBK269342] was tested, and the “% of control remaining” value was 135.087%.
For `O=C(CC(CN1CCN(c2cccc(Cl)c2)CC1)C(=O)O)NCc1ccccc1` (stereo not shown) [CBK286787], the “% of control remaining” value was 112.324%.
In the case of `COc1ccc(C(C)(C)C)cc1NC(=O)c1ccncc1` [CBK288248], the “% of control remaining” value is reported as 134.819%.
`CCN(CC)C(=O)Cn1ncc2c3sc(C)cc3n(C)c2c1=O` [CBK284156] was tested, and the “% of control remaining” value was 114.775%.
For `CN(C(=O)CN1CSCC1=O)c1nc2c(s1)CC(c1ccccc1)CC2` (stereo not shown) [CBK305526], the “% of control remaining” value was 90.472%.
In the case of `Cc1ccc(OCC(=O)Nc2ccc3c(c2)nc2n3CCOC2)cc1` [CBK288005], the “% of control remaining” value is reported as 99.7933%.
In the case of `CC(=O)c1cccc(-c2cnc(Nc3ccc(N4CCOCC4)cc3)c3nccn23)c1` [CBK091217], the “% of control remaining” value is reported as 84.3841%.
In the case of `COC(=O)c1ccc(NC(=O)CNc2ccccc2)cc1` [CBK268064], the “% of control remaining” value is reported as 121.061%.
In the case of `CCOC(=O)N1CCC(NC(=O)N(CCCN(C)C)Cc2ccc3c(c2)OCO3)CC1` [CBK159231], the “% of control remaining” value is reported as 102.229%.
For `CC(C)(CN)CN(Cc1ccc(-c2ccccc2)cc1)C(=O)Nc1ccccc1C(C)(C)C` [CBK002476C], the “% of control remaining” value was 46.9344%.
`Cc1nnc(SCC(=O)N2c3ccccc3Sc3ccccc32)n1N` [CBK265920] was tested, and the “% of control remaining” value was 116.609%.
In the case of `CCOC(=O)c1[nH]c2ccccc2c1NS(=O)(=O)c1ccc(OC)c(OC)c1` [CBK047421], the “% of control remaining” value is reported as 115.602%.
For `COc1ccc([N+](=O)[O-])cc1NC(=O)c1cc(-c2ccccc2Cl)nc2ccc(C)cc12` [CBK267764], the “% of control remaining” value was 113.7%.
With `CCN1CC2(CCC1=O)CCN(Cc1cccc(CCN)c1)CC2` [CBK306823] the “% of control remaining” value was 137.228%.
With `CN(C)C(=O)CN1N=C(C(C)(C)C)Cn2c(cc3sccc32)C1=O` [CBK284116] the “% of control remaining” value was 134.824%.
With `CC(C)c1ccc(C(C)NC(=O)c2ccc(=O)n(CC(=O)N3CCCCC3)c2)cc1` (stereo not shown) [CBK286084] the “% of control remaining” value was 121.794%.
With `O=C(O)C(=N\Nc1ccccc1)/C(=N/Nc1ccccc1)C(=O)O` [CBK278303N] the “% of control remaining” value was 107.806%.
With `O=C(CSc1ccccc1)c1ccccc1` [CBK002224] the “% of control remaining” value was 161.207%.
`COCC(C)NS(=O)(=O)c1cc(C)ccc1OC` (stereo not shown) [CBK270037] was tested, and the “% of control remaining” value was 132.31%.
With `COc1ccccc1-c1nccnc1OCCn1cccc1` [CBK106820] the “% of control remaining” value was 162.024%.
In the case of `CS(=O)(=O)N1CCCC(C(=O)Nc2ccc(S(N)(=O)=O)cc2)C1` (stereo not shown) [CBK268490], the “% of control remaining” value is reported as 106.688%.
For `O=C(NCCc1cccs1)Nc1ccc2c(c1)C(F)(F)OC(F)(F)O2` [CBK045255], the “% of control remaining” value was 99.6682%.
In the case of `CS(=O)(=O)N1CC2(CCN(Cc3ccc4nsnc4c3)CC2)c2ccccc21` [CBK136957], the “% of control remaining” value is reported as 115.283%.
In the case of `Oc1ccc(Nc2cc(-c3ccccc3)ncn2)cc1` [CBK291157], the “% of control remaining” value is reported as 99.3259%.
`CC(NC1CCCN(c2ccc(C#N)cc2)C1=O)c1cncc(F)c1` (stereo not shown) [CBK306404] was tested, and the “% of control remaining” value was 126.335%.
In the case of `CN(C)CC(C)(C)CNC(=O)C1(c2ccccc2)CCCC1` [CBK149532], the “% of control remaining” value is reported as 87.0361%.
For `CC1(C)OC(N2CCN(Cc3ccccc3)CC2)=Nc2ccccc21` [CBK023933C], the “% of control remaining” value was 123.525%.
In the case of `Cc1nn(CC(=O)Nc2ccc3c(c2)nc(CN2CCCC2)n3C)c(=O)c2ccccc12` [CBK268465], the “% of control remaining” value is reported as 129.35%.
With `O=C(O)CCC(=O)Nc1ccc(S(=O)(=O)Nc2ccc(I)cc2)cc1` [CBK264866] the “% of control remaining” value was 32.7932%.
With `CCn1cc(CN2CCCCCC2c2cc(C)no2)c(C)n1` (stereo not shown) [CBK282159] the “% of control remaining” value was 162.766%.
`Cc1ccn2c(-c3csc(Nc4ccc(S(N)(=O)=O)cc4)n3)c(C)nc2c1` [CBK263304B] was tested, and the “% of control remaining” value was 69.8048%.
`O=C(Nc1ccncc1)c1ccc(S(=O)(=O)N2CCCC2)cc1` [CBK287786] was tested, and the “% of control remaining” value was 100.454%.
With `Cc1ccc(-n2c(O)nnc2-c2ccc(Cl)c(Cl)c2)cc1` [CBK074887] the “% of control remaining” value was 109.042%.
For `O=C1c2ccc(-n3c(=O)c4cc5c(=O)n(-c6ccc7c(c6)C(=O)N(c6ccccc6)C7=O)c(=O)c5cc4c3=O)cc2C(=O)N1c1ccccc1` [CBK262136], the “% of control remaining” value was 111.134%.
With `Cc1ccc(S(=O)(=O)Nc2ccc(N3C[C@@H](C)N[C@@H](C)C3)c3ccccc23)cc1` [CBK001486C] the “% of control remaining” value was 82.3799%.
In the case of `CC(C)NC1=NC(=O)C(CC(=O)Nc2ccccc2)S1` (stereo not shown) [CBK013880], the “% of control remaining” value is reported as 108.506%.
`Fc1ccc(CN2CCC(c3n[nH]c4ncccc34)CC2)cc1` [CBK284902] was tested, and the “% of control remaining” value was 117.51%.
For `COc1ccc2c(c1)C(=O)NC1(CCN(C(=O)c3ccc(OC)c(C)c3)CC1)O2` [CBK166291], the “% of control remaining” value was 153.754%.
In the case of `O=C(CSCc1c(F)cccc1Cl)Nc1ccc(S(=O)(=O)N2CCCCC2)cc1` [CBK268034], the “% of control remaining” value is reported as 42.6353%.
`Cc1ccc2cc(CN(Cc3ccccc3)S(C)(=O)=O)c(O)nc2c1` [CBK269329] was tested, and the “% of control remaining” value was 162.124%.
With `O=c1n(Cc2ccccn2)c2cccnc2n1Cc1cccs1` [CBK283867] the “% of control remaining” value was 115.542%.
For `Cc1ccc(C#N)cc1S(=O)(=O)NC1CC(=O)c2ccccc21` (stereo not shown) [CBK304030], the “% of control remaining” value was 97.0188%.
With `O=C(Cc1ccncc1)NC1Cc2ccccc2C1` [CBK200351] the “% of control remaining” value was 103.982%.
For `Cc1c(C(=O)Nc2ccccn2)sc2nc(-c3ccccc3)cn12` [CBK287501], the “% of control remaining” value was 176.743%.
For `CCOC(=O)c1cccnc1-c1ccc(S(C)(=O)=O)cc1` [CBK149242], the “% of control remaining” value was 79.3737%.
`CN(C)CCN(Cc1ccccc1)C(=O)Nc1cccnc1` [CBK145047] was tested, and the “% of control remaining” value was 143.112%.
In the case of `CCn1nc(C)c(-c2cncn2CC(C)N2CCC(C)CC2)c1C` (stereo not shown) [CBK281593], the “% of control remaining” value is reported as 123.48%.
With `COc1ccc(-c2cc3cccnc3n2CC(=O)N2CCCC2)cc1` [CBK285379] the “% of control remaining” value was 117.759%.
`O=C(Nc1ccc(S(=O)(=O)N2CCOCC2)cc1)c1cc(-c2ccccc2)nc2ccccc12` [CBK264790] was tested, and the “% of control remaining” value was 112.437%.
For `COc1ccc2c(c1)-c1c(ss/c1=N\c1ccc(S(N)(=O)=O)cc1)C(C)(C)N2` [CBK263339], the “% of control remaining” value was 67.1629%.
With `CCOC(=O)C1CCN(S(=O)(=O)c2ccc(Cl)s2)CC1` [CBK096109] the “% of control remaining” value was 95.1372%.
For `O=C(NCc1cccnc1)c1ccc(CSc2ccccc2)cc1` [CBK300544], the “% of control remaining” value was 104.411%.
`CC(C)N(CCOc1nccnc1-c1cnn(C)c1)C(C)C` [CBK107084] was tested, and the “% of control remaining” value was 87.0877%.
`Cn1ncc(N2CCC(CNC(=O)c3cc(F)ccc3Cl)C2)cc1=O` (stereo not shown) [CBK307286] was tested, and the “% of control remaining” value was 96.9935%.
`Cn1nnnc1SCCNC(=O)Nc1ccc(CN2CCOCC2)cc1` [CBK307084] was tested, and the “% of control remaining” value was 135.721%.
For `CCn1cc(CN2CCCN(C(=O)c3cc(Cl)c[nH]3)CC2)cn1` [CBK306153], the “% of control remaining” value was 152.878%.
For `CC(=O)C1=C(O)C(=O)N(CCCO)C1c1cccc([N+](=O)[O-])c1` (stereo not shown) [CBK263753], the “% of control remaining” value was 100%.
In the case of `COc1ccc(-n2c3c(cc(C(=O)Nc4ccccc4Br)c2=O)C(=O)CCC3)cc1` [CBK293945], the “% of control remaining” value is reported as 168.742%.
In the case of `O=C(c1ccco1)N1CCN(c2ncccn2)CC1` [CBK144524], the “% of control remaining” value is reported as 145.611%.
For `O=S(=O)(Cc1ccc(Br)cc1)c1cc2c(N3CCNCC3)nccc2s1` [CBK045688C], the “% of control remaining” value was 121.789%.
`c1ccc2c(c1)CCCN2CCc1c[nH]c2ccccc12` [CBK138330] was tested, and the “% of control remaining” value was 147.014%.
`Cc1noc(C)c1CC(=O)NC(C)CCc1ccc(F)cc1` (stereo not shown) [CBK281511] was tested, and the “% of control remaining” value was 129.145%.
`O=C(O)C(CC(=O)N1CCOCC1)NCc1ccccc1` (stereo not shown) [CBK267000] was tested, and the “% of control remaining” value was 124.382%.
With `O=C(O)c1cc(-n2c(S)nnc2-c2ccc3ccccc3n2)ccc1Cl` [CBK269512] the “% of control remaining” value was 142.619%.
In the case of `CC(=O)Nc1nc(OCCN2CCCC2=O)cnc1/C=C\c1ccccc1` [CBK145371], the “% of control remaining” value is reported as 114.519%.
For `O=C(O)/C(O)=C/C(=O)c1ccc(Cl)cc1` [CBK261841], the “% of control remaining” value was 105.969%.
With `C=CCNC(=O)C1(Cc2ccccc2-c2cccnc2)CCOCC1` [CBK285217] the “% of control remaining” value was 104.041%.

Source: paper PMC12040169 (PLOS Biology, 2025)
